The supplement of paper PMC5355238
Where a name gives a salt, the structure may show the parent alone. Some of the results follow. Single values are uncertain, as repeats are few or missing.

What follows are compounds tested on Reh (assay: S-phase gammaH2AX median, Z-score vs plate median (drug alone); higher = more S-phase DNA damage). Conditions: MK1775 concentration 0 nM; 10 µM; 4 h.

Row | Structure (SMILES) | S-phase gammaH2AX median (Z-score)
1 | Fc1ccc(C(OCCCc2cnc[nH]2)c2ccc(F)cc2)cc1 | 0.0756
2 | CC(=O)c1ccc(S(=O)(=O)NC(=O)NC2CCCCC2)cc1 [Acetohexamide] | 0.0291
3 | CCSC(=N)N [S-Ethylisothiourea hydrobromide] | 0.0819
4 | Nc1ncn([C@@H]2O[C@H](CO)[C@@H](O)[C@H]2O)c(=O)n1 [5-azacytidine] | -0.0155
5 | Nc1ncn([C@@H]2O[C@H](CO)[C@@H](O)[C@H]2O)c(=O)n1 [Azacitidine (Vidaza)] | 0.0568
6 | CC(COc1ccccc1)N(CCCl)Cc1ccccc1 (stereo not drawn) [Phenoxybenzamine hydrochloride] | -0.0777
7 | CCCNC(C)C(=O)Nc1ccccc1C (stereo not drawn) [Prilocaine hydrochloride] | 0.0331
8 | CNc1ncnc2c1ncn2[C@H]1C[C@H](OP(=O)(O)O)[C@@H](COP(=O)(O)O)O1 | -0.0733
9 | O=C(Nc1ccc(OC(F)(F)F)cc1)c1sccc1NCc1ccnc2ccccc12 | 0.08
10 | CNC(=O)c1cc2c(cn1)[nH]c1ccccc12 [N-Methyl-beta-carboline-3-carboxamide] | 0.756
11 | CCC(=O)N1CCN(C(=O)c2ccccc2)CC1 | 0.0661
12 | c1ccc(C2CN3CCSC3=N2)cc1 (stereo not drawn) [Tetramisole hydrochloride] | 0.24
13 | CC(COc1ccc(/C=C/c2ccccc2)cc1)[N+](C)(C)C (stereo not drawn) | -0.447
14 | Cn1c(=O)c2nc[nH]c2n(C)c1=O [Theophylline] | 0.327
15 | CN(C)CCC(c1ccc(Cl)cc1)c1ccccn1 (single isomer, unassigned; (+)) [(+)-Chlorpheniramine maleate] | 0.0816
16 | O=C(N[C@@H](Cc1ccccc1)C(=O)CCl)OCc1ccccc1 [Z-L-Phe chloromethyl ketone] | 0.893
17 | CC(C)(C)c1[nH]cnc1/C=c1\[nH]c(=O)/c(=C/c2ccccc2)[nH]c1=O [NPI-2358 (Plinabulin)] | 0.053
18 | Cc1scc2c1N(C(=O)CN1CCN(C)CC1)c1ccccc1NC2=O [Telenzepine dihydrochloride] | 0.788
19 | O=C(O)C1CCCN(CCC=C(c2ccccc2)c2ccccc2)C1 (stereo not drawn) | 0.0601
20 | CC(=O)O[C@]1(C(C)=O)CC[C@H]2[C@@H]3C=C(Cl)C4=CC(=O)[C@@H]5C[C@@H]5[C@]4(C)[C@H]3CC[C@@]21C [Cyproterone acetate] | -0.0641
21 | N[C@@H]1CONC1=O [D-Cycloserine] | -0.0233
22 | OCC1OC(n2cnc3c(NC4CCCCC4)ncnc32)C(O)C1O (stereo not drawn) [N6-Cyclohexyladenosine] | 0.0583
23 | N[C@@H](Cc1c[nH]c2ccc(O)cc12)C(=O)O [5-Hydroxy-L-tryptophan] | 0.161
24 | CC(C)n1nc(-c2ccc3oc(N)nc3c2)c2c(N)ncnc21 | -0.104
25 | Clc1ccc(Cn2c(CN3CCCC3)nc3ccccc32)cc1 [Clemizole hydrochloride] | 0.144

Row | Structure (SMILES) | S-phase gammaH2AX median (Z-score)
26 | O=C(O)/C=C/c1ccc(O)c(O)c1 [Caffeic Acid] | 0.0233
27 | CCCCc1nc2cc(/C=C/C(=O)NO)ccc2n1CCN(CC)CC [SB939 (Pracinostat)] | 0.33
28 | CC(=O)Oc1ccccc1C(=O)O [Acetylsalicylic acid] | -0.033
29 | CC1=C(/C=C/C(C)=C/C=C/C(C)=C/C=C/C=C(C)/C=C/C=C(C)/C=C/C2=C(C)C(=O)[C@@H](O)CC2(C)C)C(C)(C)C[C@H](O)C1=O [Astaxanthin] | -0.0447
30 | CC(O)C(O)[C@H]1CNc2nc(N)[nH]c(=O)c2N1 (stereo partly drawn) [(6R)-5,6,7,8-Tetrahydro-L-biopterin hydrochloride] | -0.113
31 | NC(=O)C1=CN(C2OC(COP(=O)(O)OP(=O)(O)OC[C@H]3O[C@@H](n4cnc5c(N)ncnc54)C(OP(=O)(O)O)[C@H]3O)C(O)C2O)C=CC1 (stereo partly drawn) [NADPH tetrasodium] | -0.0615
32 | CC1=C(/C=C/C(C)=C/C=C/C(C)=C/C(=O)O)C(C)(C)CCC1 [Retinoic acid] | 0.0497
33 | CC1=C(C(=O)O)N2C(=O)[C@@H](NC(=O)[C@H](N)C3=CCC=CC3)[C@H]2SC1 [Cephradine] | -0.00971
34 | NC(=O)CNCCC(c1ccccc1)c1ccccc1 [N-(3,3-Diphenylpropyl)glycinamide] | 0.0661
35 | O=C(O)c1ccc(-c2c[nH]c3ncc(-c4ccccc4)cc23)cc1C1CCCC1 | -0.0561
36 | CN1CCc2cc(Cl)c(O)cc2[C@@H](c2ccccc2)C1 | -0.0504
37 | Nc1ccc(N2C(=O)c3ccccc3C2=O)c(Cl)c1 [N-(4-Amino-2-chlorophenyl)phthalimide] | -0.0854
38 | C[C@]12CC[C@@H]3c4ccc(O)cc4CC[C@H]3[C@@H]1CC[C@@H]2O [beta-Estradiol] | 0.101
39 | C[C@]12CC[C@@H]3c4ccc(O)cc4CC[C@H]3[C@@H]1CC[C@@H]2O [Estradiol] | -0.0174
40 | CN(C)CCOC(c1ccccc1)c1ccccc1 [Diphenhydramine hydrochloride] | 0.0063
41 | OC(CN1CCC(Cc2ccc(F)cc2)CC1)c1ccc(Cl)cc1 (stereo not drawn) [Eliprodil] | -0.0346
42 | CN(C)CC/C=C1/c2ccccc2Sc2ccc(Cl)cc21 [Chlorprothixene hydrochloride] | 0.0951
43 | CC(=O)[C@H]1CC[C@H]2[C@@H]3CCC4=CC(=O)CC[C@]4(C)[C@H]3CC[C@]12C [Progesterone] | 0.00473
44 | N=C(N)NC(=O)Cc1c(Cl)cccc1Cl [Guanfacine hydrochloride] | 0.236
45 | CN1C[C@H](O)[C@@H](O)[C@H](O)[C@H]1CO [N-Methyl-1-deoxynojirimycin] | 0.00946
46 | Nc1cccc2c1C(=O)N(C1CCC(=O)NC1=O)C2=O (stereo not drawn) [Pomalidomide] | -0.0398
47 | CC(=O)O[C@@]12CO[C@@H]1C[C@H](O)[C@@]1(C)C(=O)[C@H](O)C3=C(C)[C@@H](OC(=O)[C@H](O)[C@@H](NC(=O)OC(C)(C)C)c4ccccc4)C[C@@](O)([C@@H](OC(=O)c4ccccc4)[C@H]21)C3(C)C [Docetaxel (Taxotere)] | -0.0491
48 | COc1ccccc1N1CCN(CCN(C(=O)C2CCCCC2)c2ccccn2)CC1 | 0.0868
49 | C=CC1=C(C)c2cc3[nH]c(cc4nc(cc5[nH]c(cc1n2)c(C)c5CCC(=O)O)C(CCC(=O)O)=C4C)c(C)c3C=C [Protoporphyrin IX disodium] | 1.04
50 | CO[C@H]1C[C@@H]2CC[C@@H](C)[C@@](O)(O2)C(=O)C(=O)N2CCCC[C@H]2C(=O)O[C@H]([C@H](C)C[C@@H]2CC[C@@H](OCCO)[C@H](OC)C2)CC(=O)[C@H](C)/C=C(\C)[C@@H](O)[C@@H](OC)C(=O)[C@H](C)C[C@H](C)/C=C/C=C/C=C/1C [Everolimus (RAD001)] | -0.0576

Random excerpt: three records from the list, in no set order.
Row | Structure (SMILES) | S-phase gammaH2AX median (Z-score)
9 | O=C(Nc1ccc(OC(F)(F)F)cc1)c1sccc1NCc1ccnc2ccccc12 | 0.08
34 | NC(=O)CNCCC(c1ccccc1)c1ccccc1 [N-(3,3-Diphenylpropyl)glycinamide] | 0.0661
37 | Nc1ccc(N2C(=O)c3ccccc3C2=O)c(Cl)c1 [N-(4-Amino-2-chlorophenyl)phthalimide] | -0.0854

Later entries

Row | Structure (SMILES) | S-phase gammaH2AX median (Z-score)
51 | C[n+]1cc2c3c(ccc2c2ccc4cc5c(cc4c21)OCO5)OCO3 [Sanguinarine chloride] | 8.84
52 | Nc1ncnc2c1ncn2[C@@H]1O[C@H](CO)[C@@H](O)[C@H]1O [Adenosine] | -0.0369
53 | O=c1cc(-c2cccc3c2Sc2ccccc2S3)oc(N2CCOCC2)c1 | -0.0754
54 | Fc1ccc(C(c2ccc(F)cc2)N2CCN(C/C=C/c3ccccc3)CC2)cc1 [Flunarizine dihydrochloride] | -0.0882
55 | N#Cc1c(O)c2c(-c3ccc(-c4ccccc4O)cc3)csc2[nH]c1=O | 0.0785
56 | COc1cccc2c1C(=O)c1c(O)c3c(c(O)c1C2=O)C[C@@](O)(C(=O)CO)C[C@@H]3O[C@H]1C[C@H](N)[C@H](O)[C@H](C)O1 [Doxorubicin (Adriamycin)] | 1.05
57 | Cn1cnc2c(NCc3ccccc3)nc(NCCO)nc21 [Olomoucine] | -0.0993
58 | Nc1nc(Cl)nc2c1ncn2[C@H]1C[C@H](O)[C@@H](CO)O1 [Cladribine] | 2.48
59 | COc1cccc2c1[C@@H]1CN(CCCCn3c(=O)[nH]c4c(sc5ncc(-c6ccccc6)nc54)c3=O)C[C@@H]1CO2 [Fiduxosin hydrochloride] | -0.387
60 | CCN1CCC[C@H]1CNC(=O)c1c(OC)ccc(I)c1O | 0.0535
61 | C[C@]12CCC(=O)C=C1CC[C@@H]1[C@@H]2[C@@H](O)C[C@@]2(C)[C@H]1CC[C@]2(O)C(=O)CO [Hydrocortisone] | 0.0252
62 | C[C@]12CCC(=O)C=C1CC[C@@H]1[C@@H]2[C@@H](O)C[C@@]2(C)[C@H]1CC[C@]2(O)C(=O)CO [Hydrocortisone (Cortisol)] | 0.0437
63 | CNCCCC1c2ccccc2C=Cc2ccccc21 [Protriptyline hydrochloride] | 0.116
64 | S=C(S)OC1CC2CC1C1CCCC21 [D-609 potassium] | -0.327
65 | Oc1ncnc2[nH]ncc12 [Allopurinol] | 0.0583
66 | CCC(=O)N1CCN(c2ccc(-n3c(=O)ccc4cnc5ccc(-c6cnc7ccccc7c6)cc5c43)cc2C(F)(F)F)CC1 [Torin 1] | -0.222
67 | C[N+]1(CCCCC[N+]2(C)CCCC2)CCCC1 [Pentolinium di[L(+)-tartrate]] | -0.466
68 | O=C(Nc1ccccc1)c1cc([N+](=O)[O-])ccc1Cl | -0.0899
69 | COc1ccc(CCN(C)CCCC(C#N)(c2ccc(OC)c(OC)c2)C(C)C)cc1OC (stereo not drawn) [(?)-Verapamil hydrochloride] | -0.627
70 | Cc1cc(C(C)(C)C)c(O)c(C)c1CC1=NCCN1 [Oxymetazoline hydrochloride] | 0.17
71 | O=c1cc(N2CCOCC2)oc2c(-c3cccc4c3sc3ccccc34)cccc12 | -0.113
72 | CC(C)(C(=O)O)c1ccc(C(O)CCCN2CCC(C(O)(c3ccccc3)c3ccccc3)CC2)cc1 (stereo not drawn) [Fexofenadine hydrochloride] | 0.0535
73 | CC(N)=NCCCC[C@H](N)C(=O)O [L-N6-(1-Iminoethyl)lysine hydrochloride] | 0.101

Rewritten with tabs: entries from further up
Row	Structure (SMILES)	S-phase gammaH2AX median (Z-score)
67	C[N+]1(CCCCC[N+]2(C)CCCC2)CCCC1 [Pentolinium di[L(+)-tartrate]]	-0.466
68	O=C(Nc1ccccc1)c1cc([N+](=O)[O-])ccc1Cl	-0.0899
